# Experimental data as given in the supplement of paper PMC8104966.
# This is one part of the list. This data set is noisy: repeats of one test often differ as much as different tests do.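 U2OS cells carrying ACE2 were mixed with U2OS cells carrying full-length spike, and fusion was scored by imaging as the share of nuclei showing both cell types' fluorescent markers. A compound counts as an inhibitory hit when it is non-toxic and its fusion z-score falls below -3, meaning more than three standard deviations below the plate's DMSO wells.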
# Tested on: U2OS ACE2 x SARS-CoV-2 spike co-culture
# Assay: cell-cell fusion (fraction fused) z-score vs plate DMSO control; higher = more fusion
# Conditions: 30 µM; 5 h; toxicity class: non-toxic, passed QC
row,Compound,cell-cell fusion (z-score)
1,C[C@]12CCC3c4ccc(O)cc4CCC3C1CC[C@@H]2OC(=O)CCC1CCCC1 (some centres not stated),inactive: 0.662
2,CC1CNc2c(cccc2S(=O)(=O)N[C@@H](CCCNC(=N)N)C(=O)N2CC[C@@H](C)C[C@@H]2C(=O)O)C1 (some centres not stated) [Argatroban],inactive: 2.56
3,CO[C@@]1(NC(=O)C(C(=O)[O-])c2ccc(O)cc2)C(=O)N2C(C(=O)[O-])=C(CSc3nnnn3C)CO[C@@H]21.[Na+].[Na+] (some centres not stated),inactive: 0.33
4,Cl.c1ccc2c(c1)OCC(C1=NCCN1)O2 (configuration not stated),inactive: 2.72
5,Cl.c1ccc2c(c1)OCC(C1=NCCN1)O2 (configuration not stated) [Idazoxan hydrochloride],inactive: 0.859
6,COc1cc([C@@H]2c3cc4c(cc3[C@@H](O[C@@H]3O[C@@H]5CO[C@@H](c6cccs6)O[C@H]5[C@H](O)[C@H]3O)[C@H]3COC(=O)[C@H]23)OCO4)cc(OC)c1O [Teniposide],inactive: 2.33
7,CCc1nn(CCCN2CCN(c3cccc(Cl)c3)CC2)c(=O)n1CCOc1ccccc1.Cl [Nefazodone hydrochloride],inactive: 2.42
8,COC(=O)N[C@H](C(=O)N1CCC[C@H]1C(=O)Nc1ccc([C@@H]2CC[C@@H](c3ccc(NC(=O)[C@@H]4CCCN4C(=O)[C@@H](NC(=O)OC)C(C)C)cc3)N2c2ccc(C(C)(C)C)cc2)cc1)C(C)C [Ombitasvir],inactive: 2.84
9,Nc1n[nH]c2nnc(-c3c(-c4ccccc4)nn4ccccc34)cc12,inactive: -1.35
10,CCn1cc(C(=O)O)c(=O)c2ccc(C)nc21,inactive: 3.18
11,CN(CCOc1ccc(CC2SC(=O)NC2=O)cc1)c1ccccn1 (configuration not stated) [Rosiglitazone],inactive: 1.82
12,Cl.O=C(OCCN1CCOCC1)C1(c2ccccc2)CCCCC1,inactive: 2.98
13,Cc1cc(C(C)Nc2ccccc2)c2nc(N3CCOCC3)cc(=O)n2c1 (configuration not stated),inactive: -1.34
14,N=C(N)NCc1cccc(I)c1.N=C(N)NCc1cccc(I)c1.O=S(=O)(O)O [m-Iodobenzylguanidine hemisulfate],inactive: 2.32
15,CN(C)c1ccc(/C=C2\C(=O)Nc3ccccc32)cc1,inactive: 5.3
16,Nc1nc2c(ncn2CCC(CO)CO)c(=O)[nH]1,inactive: 3.39
17,C[C@@H](Oc1cc(-n2cnc3ccc(CN4CCN(C)CC4)cc32)sc1C(N)=O)c1ccccc1C(F)(F)F,inactive: -0.872
18,C=CC1(C)CC(=O)C2(O)C(C)(O1)C(OC(C)=O)C(O)C1C(C)(C)CCC(O)C12C (configuration not stated) [Forskolin],inactive: -1.54
19,O=C(O)CCCCCCCCCCCCC1C=CCC1 (configuration not stated),inactive: 2.77
20,C=C(CC)C(=O)c1ccc(OCC(=O)O)c(Cl)c1Cl,inactive: 0.539
21,Cl.Cl.c1ccc(CCCN2CCN(CCOC(c3ccccc3)c3ccccc3)CC2)cc1,inactive: -0.441
22,CC(=O)CCCCn1c(=O)c2c(ncn2C)n(C)c1=O [Pentoxifylline],inactive: 3.1
23,"CC(O)C(O)[C@H]1CNc2nc(N)[nH]c(=O)c2N1.Cl.Cl (stereo partly drawn) [(6R)-5,6,7,8-Tetrahydro-L-biopterin hydrochloride]",inactive: 1.2
24,"Nc1ncnc2c1ncn2[C@@H]1O[C@@H]2COP(=O)(O)O[C@H]2[C@H]1O [Adenosine 3',5'-cyclic monophosphate]",inactive: 1.63

row,Compound,cell-cell fusion (z-score)
1,C[C@@H]1O[C@@H](OC[C@H]2OC(Oc3c(-c4ccc(O)c(O)c4)oc4cc(O)cc(O)c4c3=O)[C@H](O)[C@@H](O)[C@@H]2O)[C@H](O)[C@H](O)[C@H]1O (some centres not stated),inactive: 2.86
2,CCCNC(=O)Nc1ccc(Oc2ncnc3cc(OC)c(OC)cc23)cc1Cl,inactive: 0.756
3,CC(=O)OCC(=O)[C@@]12OC3(CCCC3)O[C@@H]1C[C@H]1[C@@H]3CCC4=CC(=O)C=C[C@]4(C)[C@@]3(F)[C@@H](O)C[C@@]12C [Amcinonide],inactive: 1.2
4,Cl.CNCC\C=C1\c2ccccc2CCc2ccccc12 [Nortriptyline hydrochloride],inactive: -1.23
5,FC(F)c1nc2ccccc2n1-c1nc(N2CCOCC2)nc(N2CCOCC2)n1,inactive: 0.758
6,CCC(CCC(C)[C@H]1CCC2C3CC=C4C[C@@H](O)CC[C@]4(C)C3CC[C@@]21C)C(C)C (stereo partly drawn) [beta-SITOSTEROL],inactive: 1.86
7,NS(=O)(=O)c1cc2c(cc1Cl)N=C(CSCc1ccccc1)NS2(=O)=O,inactive: 1.4
8,CCN(C)C(=O)Oc1cccc([C@H](C)N(C)C)c1 [Rivastigmine],inactive: 1.01
9,C[C@@H]1CC2C3CCC4=CC(=O)C=C[C@]4(C)[C@@]3(F)[C@@H](O)C[C@]2(C)[C@H]1C(=O)CO (some centres not stated),inactive: 3.63
10,Cc1nccc2c1[nH]c1ccccc12 [Harmane],inactive: 0.00565
11,CN(C)CCCN1c2ccccc2CCc2ccc(Cl)cc21.Cl [Clomipramine hydrochloride],inactive: 2.15
12,NC1(C(=O)O)CCc2cc(C(=O)O)ccc21 (configuration not stated),inactive: 1.73
13,CC(=O)Nc1ccc(O)cc1 [Acetaminophen],inactive: 2.85
14,COc1cc2c(Oc3ccc4[nH]c(C)cc4c3F)ncnc2cc1OCCCN1CCCC1 [Cediranib (AZD2171)],inactive: 1.61
15,CC(C)=CCCC1(C)C=Cc2c(O)c3c(c(CC=C(C)C)c2O1)OC12C(=CC4CC1C(C)(C)OC2(C/C=C(/C)C(=O)O)C4O)C3=O (configuration not stated),inactive: 2.83
16,N=C(N)NOCC[C@H](N)C(=O)O,inactive: 2.39
17,Cc1nnc(C(C)C)n1C1CC2CCC(C1)N2CC[C@H](NC(=O)C1CCC(F)(F)CC1)c1ccccc1 (some centres not stated) [Maraviroc],inactive: 3.18
18,C=CC(=O)Nc1cccc(Nc2nc(Nc3ccc(N4CCN(C(C)=O)CC4)cc3OC)ncc2C(F)(F)F)c1,inactive: -1.17
19,COC(=O)c1c(C)cc(OC(=O)c2c(C)cc(O)c(CO)c2O)c(C)c1O,inactive: 1.43
20,CC1=C(C/C=C(\C)CCC[C@H](C)CCC[C@H](C)CCCC(C)C)C(=O)c2ccccc2C1=O [Vitamin K1],inactive: 4
21,Cn1cc(C(=O)OCC2CCN(CCNS(C)(=O)=O)CC2)c2ccccc21,inactive: 2.83
22,CN1C(CC(=O)c2ccccc2)CCCC1CC(O)c1ccccc1.Cl (configuration not stated),inactive: 2.84
23,Cc1ccccc1CN1C2=NCCN2C(=O)C2=C1CCN(Cc1ccccc1)C2,inactive: 2.2
24,CN(C)CCCN1c2ccccc2Sc2ccccc21.Cl [Promazine hydrochloride],inactive: 1.97

# Nothing new here: an excerpt of the list.
row,Compound,cell-cell fusion (z-score)
3,CC(=O)OCC(=O)[C@@]12OC3(CCCC3)O[C@@H]1C[C@H]1[C@@H]3CCC4=CC(=O)C=C[C@]4(C)[C@@]3(F)[C@@H](O)C[C@@]12C [Amcinonide],inactive: 1.2
4,Cl.CNCC\C=C1\c2ccccc2CCc2ccccc12 [Nortriptyline hydrochloride],inactive: -1.23
5,FC(F)c1nc2ccccc2n1-c1nc(N2CCOCC2)nc(N2CCOCC2)n1,inactive: 0.758
6,CCC(CCC(C)[C@H]1CCC2C3CC=C4C[C@@H](O)CC[C@]4(C)C3CC[C@@]21C)C(C)C (stereo partly drawn) [beta-SITOSTEROL],inactive: 1.86
7,NS(=O)(=O)c1cc2c(cc1Cl)N=C(CSCc1ccccc1)NS2(=O)=O,inactive: 1.4
8,CCN(C)C(=O)Oc1cccc([C@H](C)N(C)C)c1 [Rivastigmine],inactive: 1.01
9,C[C@@H]1CC2C3CCC4=CC(=O)C=C[C@]4(C)[C@@]3(F)[C@@H](O)C[C@]2(C)[C@H]1C(=O)CO (some centres not stated),inactive: 3.63
10,Cc1nccc2c1[nH]c1ccccc12 [Harmane],inactive: 0.00565
11,CN(C)CCCN1c2ccccc2CCc2ccc(Cl)cc21.Cl [Clomipramine hydrochloride],inactive: 2.15
12,NC1(C(=O)O)CCc2cc(C(=O)O)ccc21 (configuration not stated),inactive: 1.73
13,CC(=O)Nc1ccc(O)cc1 [Acetaminophen],inactive: 2.85
14,COc1cc2c(Oc3ccc4[nH]c(C)cc4c3F)ncnc2cc1OCCCN1CCCC1 [Cediranib (AZD2171)],inactive: 1.61
15,CC(C)=CCCC1(C)C=Cc2c(O)c3c(c(CC=C(C)C)c2O1)OC12C(=CC4CC1C(C)(C)OC2(C/C=C(/C)C(=O)O)C4O)C3=O (configuration not stated),inactive: 2.83
16,N=C(N)NOCC[C@H](N)C(=O)O,inactive: 2.39
17,Cc1nnc(C(C)C)n1C1CC2CCC(C1)N2CC[C@H](NC(=O)C1CCC(F)(F)CC1)c1ccccc1 (some centres not stated) [Maraviroc],inactive: 3.18

# Going on with the list.

row,Compound,cell-cell fusion (z-score)
1,COc1ccc(CCNc2nc(N3CCc4cc(OC)c(OC)cc4C3)c3cc(OC)c(OC)cc3n2)cc1OC.Cl,active: -4.41
2,Cl.N=C1CCCN1Cc1[nH]c(=O)[nH]c(=O)c1Cl [Tipiracil hydrochloride],inactive: 1.72
3,CN(C)CCc1c[nH]c2ccc(C[C@H]3COC(=O)N3)cc12 [Zolmitriptan],inactive: 2.34
4,O=C(O)CCCC[C@@H]1SC[C@@H]2NC(=O)N[C@@H]21 [D-Biotin],inactive: 1.22
5,Cl.NCC(O)c1ccc(O)cc1 (configuration not stated),inactive: 1.84
6,N#CNC(=N)N,inactive: 2.46
7,CCCc1cc(=O)[nH]c(=S)[nH]1 [Propylthiouracil],inactive: 2.24
8,CNCC(=O)c1ccc(O)c(O)c1.Cl,active: -3.91
9,CCN(CC)CCNC(C(=O)OCCC(C)C)c1ccccc1.Cl.Cl (configuration not stated),inactive: 2.42
10,CC(=O)N[C@H]1[C@H]([C@H](O)[C@H](O)CO)OC(C(=O)O)=C[C@@H]1NC(=N)N [Zanamivir],inactive: 2.04
11,CC(CCC(=O)O)[C@H]1CCC2C3C(=O)C[C@@H]4CC(=O)CC[C@]4(C)C3CC(=O)[C@@]21C (some centres not stated),inactive: 0.732
12,Br.CN1CCC[C@@H]1Cc1c[nH]c2cc(CCS(=O)(=O)c3ccccc3)ccc12,inactive: 2.48
13,NCC(=O)NCC(=O)O,inactive: 1.74
14,CC(C)c1nc(CN(C)C(=O)N[C@H](C(=O)N[C@@H](Cc2ccccc2)C[C@H](O)[C@H](Cc2ccccc2)NC(=O)OCc2cncs2)C(C)C)cs1,inactive: 2.77
15,C[C@H](N)[C@H](O)c1ccccc1,inactive: 1.19
16,COc1c(OC)c2occc2c2oc(=O)ccc12,inactive: 1.11
17,COC(=O)CCC(C)[C@H]1CCC2C3C(C[C@H](O)[C@@]21C)[C@@]1(C)CC[C@@H](O)C[C@H]1C[C@H]3O (some centres not stated),inactive: -1.06
18,CC(=O)Oc1cccc2c1C(=O)c1c(OC(C)=O)cc(C(=O)O)cc1C2=O,inactive: 1.66
19,COc1cc2c(cc1OC)C(=O)C(CC1CCN(Cc3ccccc3)CC1)C2 (configuration not stated) [Donepezil],inactive: 2.42
20,O=C(O)c1cc2cc(F)ccc2[nH]1 [5-Fluoroindole-2-carboxylic acid],inactive: 1.66
21,COc1ccc(-c2cc(=O)c3c(OC)c(OC)c(OC)c(OC)c3o2)cc1,inactive: 1.92
22,Cc1cc(N)c2ccccc2[n+]1CCCCCCCCCC[n+]1c(C)cc(N)c2ccccc21.[Cl-].[Cl-],inactive: 3.23
23,Nc1ccn(C2O[C@H](CO)[C@@H](O)[C@@H]2O)c(=O)n1 (some centres not stated),inactive: 0.0918
24,CN(C)[C@@H]1C(O)=C(C(N)=O)C(=O)[C@@]2(O)C(O)=C3C(=O)c4c(O)cccc4[C@@](C)(O)[C@H]3[C@H](O)[C@@H]12.Cl,inactive: 1.95
